No constants are given. Whether binding was seen depends on the method and setting. In cells and extracts the contact can be indirect. A yes stands for co-enrichment or nearness to the bait. Other partners may have been found.
Target: GST-RhoA (UniProt P61586)
Assay: affinity purification with mass spectrometry; GST (light) or GST-RhoA (heavy) on glutathione-sepharose beads, ~2 mg SILAC-labelled A375M2 lysate for 1 h; 50 mM Tris-HCl pH 7.5, 150 mM NaCl, 1% NP-40, 10 mM EDTA; LC-MS/MS; hits at 4-fold or more enrichment over GST; only the target purified

Sequences of proteins named here, by UniProt entry; tags and fusion partners are left off.
UniProt P61586: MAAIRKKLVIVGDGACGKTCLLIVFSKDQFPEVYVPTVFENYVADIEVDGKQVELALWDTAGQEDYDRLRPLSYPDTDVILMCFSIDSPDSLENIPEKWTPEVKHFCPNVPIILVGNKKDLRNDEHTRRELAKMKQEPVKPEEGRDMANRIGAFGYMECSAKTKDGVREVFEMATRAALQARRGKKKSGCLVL
UniProt O75116: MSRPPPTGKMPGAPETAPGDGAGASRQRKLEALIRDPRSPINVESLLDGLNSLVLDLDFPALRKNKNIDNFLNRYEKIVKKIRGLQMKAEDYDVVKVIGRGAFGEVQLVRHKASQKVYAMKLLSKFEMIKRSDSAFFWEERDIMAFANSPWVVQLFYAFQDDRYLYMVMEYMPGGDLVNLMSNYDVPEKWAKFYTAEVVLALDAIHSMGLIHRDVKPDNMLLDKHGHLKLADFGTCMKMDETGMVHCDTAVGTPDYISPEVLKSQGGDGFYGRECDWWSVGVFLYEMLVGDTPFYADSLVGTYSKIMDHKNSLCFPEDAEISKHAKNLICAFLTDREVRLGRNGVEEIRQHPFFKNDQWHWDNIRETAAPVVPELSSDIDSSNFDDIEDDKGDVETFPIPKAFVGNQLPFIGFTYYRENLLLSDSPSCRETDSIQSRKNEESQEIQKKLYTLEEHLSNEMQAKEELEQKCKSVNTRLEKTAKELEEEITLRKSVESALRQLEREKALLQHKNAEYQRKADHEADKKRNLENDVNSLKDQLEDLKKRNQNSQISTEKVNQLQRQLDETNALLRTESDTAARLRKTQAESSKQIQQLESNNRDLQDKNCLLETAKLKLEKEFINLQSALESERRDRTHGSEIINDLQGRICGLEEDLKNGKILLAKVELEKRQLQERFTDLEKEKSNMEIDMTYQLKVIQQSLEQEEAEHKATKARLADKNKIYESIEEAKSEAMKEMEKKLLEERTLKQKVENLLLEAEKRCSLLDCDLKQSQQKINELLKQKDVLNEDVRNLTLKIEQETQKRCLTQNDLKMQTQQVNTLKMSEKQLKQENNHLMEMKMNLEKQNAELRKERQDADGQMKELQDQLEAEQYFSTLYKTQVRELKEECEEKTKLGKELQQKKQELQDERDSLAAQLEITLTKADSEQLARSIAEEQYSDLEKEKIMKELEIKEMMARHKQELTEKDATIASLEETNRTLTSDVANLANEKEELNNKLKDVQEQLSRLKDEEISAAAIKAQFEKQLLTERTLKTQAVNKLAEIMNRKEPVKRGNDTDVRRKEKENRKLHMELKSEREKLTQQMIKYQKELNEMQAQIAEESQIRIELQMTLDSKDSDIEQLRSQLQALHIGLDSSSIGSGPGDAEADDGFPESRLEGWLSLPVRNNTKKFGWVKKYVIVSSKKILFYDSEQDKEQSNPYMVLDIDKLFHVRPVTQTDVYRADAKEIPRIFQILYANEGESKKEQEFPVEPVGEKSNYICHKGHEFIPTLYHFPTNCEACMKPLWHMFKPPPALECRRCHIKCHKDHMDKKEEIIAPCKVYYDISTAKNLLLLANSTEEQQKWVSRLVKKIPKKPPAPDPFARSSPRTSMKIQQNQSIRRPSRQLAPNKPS
UniProt Q16513: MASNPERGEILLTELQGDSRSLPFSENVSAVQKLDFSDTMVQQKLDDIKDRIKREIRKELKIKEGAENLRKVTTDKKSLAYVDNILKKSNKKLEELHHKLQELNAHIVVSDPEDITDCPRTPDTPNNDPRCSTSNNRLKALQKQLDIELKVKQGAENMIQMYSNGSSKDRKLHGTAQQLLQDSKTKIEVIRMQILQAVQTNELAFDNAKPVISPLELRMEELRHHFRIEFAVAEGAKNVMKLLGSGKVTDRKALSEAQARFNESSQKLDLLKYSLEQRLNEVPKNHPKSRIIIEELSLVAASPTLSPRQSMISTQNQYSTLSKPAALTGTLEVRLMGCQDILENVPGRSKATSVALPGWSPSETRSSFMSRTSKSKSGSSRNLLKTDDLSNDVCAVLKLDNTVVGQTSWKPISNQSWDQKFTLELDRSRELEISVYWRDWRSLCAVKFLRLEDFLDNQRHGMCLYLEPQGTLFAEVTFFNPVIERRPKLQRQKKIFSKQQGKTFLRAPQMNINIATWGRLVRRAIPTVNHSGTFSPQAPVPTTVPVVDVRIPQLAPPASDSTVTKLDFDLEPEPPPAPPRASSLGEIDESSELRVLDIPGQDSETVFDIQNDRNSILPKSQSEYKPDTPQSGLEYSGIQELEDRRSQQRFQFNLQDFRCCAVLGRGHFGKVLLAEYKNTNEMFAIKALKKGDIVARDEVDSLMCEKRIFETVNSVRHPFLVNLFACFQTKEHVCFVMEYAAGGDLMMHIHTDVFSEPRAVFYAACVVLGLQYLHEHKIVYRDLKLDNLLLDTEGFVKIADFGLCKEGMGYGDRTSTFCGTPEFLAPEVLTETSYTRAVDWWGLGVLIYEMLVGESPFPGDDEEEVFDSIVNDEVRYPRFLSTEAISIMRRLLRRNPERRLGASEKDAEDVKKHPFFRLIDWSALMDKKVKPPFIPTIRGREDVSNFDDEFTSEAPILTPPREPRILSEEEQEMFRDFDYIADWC

Substance | binding
ROCK2 (from UniProt O75116 1-1388) | binds
serine/threonine-protein kinase N2 (PKN2) (from UniProt Q16513 1-984) | binds

— PMC8405734
